Source: publication doi:10.1101/2023.01.17.524225 (bioRxiv, 2023)
Read-outs that look alike come from different tables or passages of the source. Results are given in words; binding and its absence hold for the method and conditions named. Binding seen in cells or lysates may run through a third protein. A yes stands for co-enrichment or nearness to the bait. Other partners may have been found. No binding means not detected with the bait. Where a sequence is shown, tags or fusion partners need not be part of it.

Chains of the proteins cited; added tags and fusions are not shown.
UniProt Q92841: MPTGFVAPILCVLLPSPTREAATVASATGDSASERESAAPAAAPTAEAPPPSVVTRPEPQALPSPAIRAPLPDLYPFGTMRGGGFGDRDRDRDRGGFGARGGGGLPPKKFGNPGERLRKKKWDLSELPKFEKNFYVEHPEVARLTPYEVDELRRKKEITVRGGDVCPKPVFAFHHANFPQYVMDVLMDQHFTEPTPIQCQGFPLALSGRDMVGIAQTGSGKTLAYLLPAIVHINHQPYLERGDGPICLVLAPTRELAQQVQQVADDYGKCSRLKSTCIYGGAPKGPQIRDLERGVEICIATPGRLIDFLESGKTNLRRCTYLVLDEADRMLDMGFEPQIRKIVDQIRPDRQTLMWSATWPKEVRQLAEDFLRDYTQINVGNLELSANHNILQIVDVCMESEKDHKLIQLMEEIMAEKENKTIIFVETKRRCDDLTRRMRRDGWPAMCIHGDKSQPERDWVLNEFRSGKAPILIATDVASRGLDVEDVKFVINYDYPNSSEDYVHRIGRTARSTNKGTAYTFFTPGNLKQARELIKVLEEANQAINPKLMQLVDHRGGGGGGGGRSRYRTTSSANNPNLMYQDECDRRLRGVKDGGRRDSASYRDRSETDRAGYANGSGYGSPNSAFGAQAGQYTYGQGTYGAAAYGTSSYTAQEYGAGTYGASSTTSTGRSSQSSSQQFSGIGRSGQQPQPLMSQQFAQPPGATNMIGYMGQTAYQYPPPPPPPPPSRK
UniProt Q93009: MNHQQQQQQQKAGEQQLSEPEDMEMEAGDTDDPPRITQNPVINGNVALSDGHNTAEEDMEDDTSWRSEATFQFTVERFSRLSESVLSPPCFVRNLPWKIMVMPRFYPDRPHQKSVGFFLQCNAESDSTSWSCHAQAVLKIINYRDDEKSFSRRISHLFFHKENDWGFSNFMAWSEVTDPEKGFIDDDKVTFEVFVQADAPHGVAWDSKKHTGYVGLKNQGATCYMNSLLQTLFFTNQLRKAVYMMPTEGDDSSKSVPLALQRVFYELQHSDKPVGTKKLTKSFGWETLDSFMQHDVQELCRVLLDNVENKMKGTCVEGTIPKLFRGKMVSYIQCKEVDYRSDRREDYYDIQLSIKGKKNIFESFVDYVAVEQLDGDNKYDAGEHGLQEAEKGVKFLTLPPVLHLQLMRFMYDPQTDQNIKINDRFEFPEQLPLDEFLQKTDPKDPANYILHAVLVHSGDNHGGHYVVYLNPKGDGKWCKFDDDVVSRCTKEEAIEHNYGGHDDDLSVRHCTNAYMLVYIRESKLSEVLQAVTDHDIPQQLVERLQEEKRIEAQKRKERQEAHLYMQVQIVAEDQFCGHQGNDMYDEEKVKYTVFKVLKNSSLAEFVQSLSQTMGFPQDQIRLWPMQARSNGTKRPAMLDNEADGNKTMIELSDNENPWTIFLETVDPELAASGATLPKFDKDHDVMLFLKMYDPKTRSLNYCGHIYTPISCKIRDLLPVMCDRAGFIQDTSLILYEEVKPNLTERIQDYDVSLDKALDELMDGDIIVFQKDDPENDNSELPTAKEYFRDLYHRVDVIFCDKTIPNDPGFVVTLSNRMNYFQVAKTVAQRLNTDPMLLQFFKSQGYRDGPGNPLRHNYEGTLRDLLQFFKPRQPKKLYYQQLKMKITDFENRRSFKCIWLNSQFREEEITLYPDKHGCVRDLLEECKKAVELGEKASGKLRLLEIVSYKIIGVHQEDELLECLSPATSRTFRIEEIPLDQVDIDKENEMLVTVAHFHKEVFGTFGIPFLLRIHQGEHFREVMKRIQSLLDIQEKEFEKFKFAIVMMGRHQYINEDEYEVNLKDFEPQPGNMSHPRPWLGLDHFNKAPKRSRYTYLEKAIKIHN
UniProt Q9UPY3: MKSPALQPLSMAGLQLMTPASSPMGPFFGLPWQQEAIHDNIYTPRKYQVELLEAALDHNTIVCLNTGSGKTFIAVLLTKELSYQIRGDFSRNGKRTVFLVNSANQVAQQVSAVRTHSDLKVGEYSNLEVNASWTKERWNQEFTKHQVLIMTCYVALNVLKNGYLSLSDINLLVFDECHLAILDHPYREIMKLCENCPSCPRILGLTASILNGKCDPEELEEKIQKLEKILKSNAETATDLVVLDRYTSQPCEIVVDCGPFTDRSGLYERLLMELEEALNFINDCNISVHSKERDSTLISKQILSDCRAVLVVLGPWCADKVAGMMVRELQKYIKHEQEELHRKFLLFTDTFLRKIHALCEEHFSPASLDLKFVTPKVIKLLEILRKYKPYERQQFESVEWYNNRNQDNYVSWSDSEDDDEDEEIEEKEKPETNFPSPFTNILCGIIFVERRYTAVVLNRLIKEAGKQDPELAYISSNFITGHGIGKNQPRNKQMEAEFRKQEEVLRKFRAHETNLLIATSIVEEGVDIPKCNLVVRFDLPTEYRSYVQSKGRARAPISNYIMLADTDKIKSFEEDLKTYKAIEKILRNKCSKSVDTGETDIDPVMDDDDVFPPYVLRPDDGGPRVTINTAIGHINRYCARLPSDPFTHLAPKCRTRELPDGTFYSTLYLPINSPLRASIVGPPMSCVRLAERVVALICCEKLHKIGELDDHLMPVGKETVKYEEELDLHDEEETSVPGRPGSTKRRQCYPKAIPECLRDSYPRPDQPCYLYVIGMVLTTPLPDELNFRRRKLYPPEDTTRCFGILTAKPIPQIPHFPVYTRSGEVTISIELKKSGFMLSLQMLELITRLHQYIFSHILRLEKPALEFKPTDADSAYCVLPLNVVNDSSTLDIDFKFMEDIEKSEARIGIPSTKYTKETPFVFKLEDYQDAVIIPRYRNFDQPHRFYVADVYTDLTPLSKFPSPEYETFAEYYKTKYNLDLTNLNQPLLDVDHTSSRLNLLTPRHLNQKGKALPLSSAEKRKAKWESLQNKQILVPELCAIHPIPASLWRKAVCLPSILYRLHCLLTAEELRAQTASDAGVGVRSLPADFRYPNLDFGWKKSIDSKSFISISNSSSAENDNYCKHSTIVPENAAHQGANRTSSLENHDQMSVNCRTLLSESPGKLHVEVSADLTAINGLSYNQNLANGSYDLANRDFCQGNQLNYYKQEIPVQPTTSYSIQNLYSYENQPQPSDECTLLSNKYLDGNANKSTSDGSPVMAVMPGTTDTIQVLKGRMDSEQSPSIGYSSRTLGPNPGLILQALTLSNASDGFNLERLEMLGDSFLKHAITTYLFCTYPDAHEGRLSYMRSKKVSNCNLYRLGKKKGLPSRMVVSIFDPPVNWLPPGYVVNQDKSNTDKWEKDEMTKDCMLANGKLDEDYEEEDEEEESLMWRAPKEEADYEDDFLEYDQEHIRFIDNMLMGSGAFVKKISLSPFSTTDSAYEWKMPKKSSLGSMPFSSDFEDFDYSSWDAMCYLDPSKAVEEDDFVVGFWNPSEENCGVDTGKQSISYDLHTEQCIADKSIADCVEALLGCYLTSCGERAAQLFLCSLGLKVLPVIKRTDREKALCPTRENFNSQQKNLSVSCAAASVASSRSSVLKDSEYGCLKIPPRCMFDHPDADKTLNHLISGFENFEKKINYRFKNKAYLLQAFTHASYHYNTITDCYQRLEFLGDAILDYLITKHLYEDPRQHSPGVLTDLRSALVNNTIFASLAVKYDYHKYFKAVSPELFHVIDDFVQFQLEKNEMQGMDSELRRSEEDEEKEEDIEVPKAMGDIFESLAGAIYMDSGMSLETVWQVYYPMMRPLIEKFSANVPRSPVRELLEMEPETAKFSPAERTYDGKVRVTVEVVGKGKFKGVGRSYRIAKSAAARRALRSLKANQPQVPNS
UniProt Q16666: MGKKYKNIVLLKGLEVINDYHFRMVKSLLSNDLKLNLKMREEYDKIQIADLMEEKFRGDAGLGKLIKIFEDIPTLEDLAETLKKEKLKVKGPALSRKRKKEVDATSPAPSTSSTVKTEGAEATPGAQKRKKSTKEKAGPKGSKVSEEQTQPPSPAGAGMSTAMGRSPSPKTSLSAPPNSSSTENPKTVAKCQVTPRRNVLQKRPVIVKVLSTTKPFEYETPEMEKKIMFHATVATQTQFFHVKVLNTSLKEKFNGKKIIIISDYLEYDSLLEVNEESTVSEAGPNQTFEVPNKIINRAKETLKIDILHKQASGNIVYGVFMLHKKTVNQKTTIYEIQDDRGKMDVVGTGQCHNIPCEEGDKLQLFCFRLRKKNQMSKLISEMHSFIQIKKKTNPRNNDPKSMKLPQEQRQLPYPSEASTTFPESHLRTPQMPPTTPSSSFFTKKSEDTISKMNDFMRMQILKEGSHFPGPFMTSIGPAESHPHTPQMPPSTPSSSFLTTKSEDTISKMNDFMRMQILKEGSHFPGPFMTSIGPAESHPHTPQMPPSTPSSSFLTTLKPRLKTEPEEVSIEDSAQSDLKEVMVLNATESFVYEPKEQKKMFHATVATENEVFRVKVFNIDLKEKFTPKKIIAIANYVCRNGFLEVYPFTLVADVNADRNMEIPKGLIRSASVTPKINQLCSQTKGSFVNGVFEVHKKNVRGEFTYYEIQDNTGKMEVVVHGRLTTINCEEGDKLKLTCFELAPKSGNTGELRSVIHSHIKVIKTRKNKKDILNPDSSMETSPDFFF
UniProt Q9BUQ8: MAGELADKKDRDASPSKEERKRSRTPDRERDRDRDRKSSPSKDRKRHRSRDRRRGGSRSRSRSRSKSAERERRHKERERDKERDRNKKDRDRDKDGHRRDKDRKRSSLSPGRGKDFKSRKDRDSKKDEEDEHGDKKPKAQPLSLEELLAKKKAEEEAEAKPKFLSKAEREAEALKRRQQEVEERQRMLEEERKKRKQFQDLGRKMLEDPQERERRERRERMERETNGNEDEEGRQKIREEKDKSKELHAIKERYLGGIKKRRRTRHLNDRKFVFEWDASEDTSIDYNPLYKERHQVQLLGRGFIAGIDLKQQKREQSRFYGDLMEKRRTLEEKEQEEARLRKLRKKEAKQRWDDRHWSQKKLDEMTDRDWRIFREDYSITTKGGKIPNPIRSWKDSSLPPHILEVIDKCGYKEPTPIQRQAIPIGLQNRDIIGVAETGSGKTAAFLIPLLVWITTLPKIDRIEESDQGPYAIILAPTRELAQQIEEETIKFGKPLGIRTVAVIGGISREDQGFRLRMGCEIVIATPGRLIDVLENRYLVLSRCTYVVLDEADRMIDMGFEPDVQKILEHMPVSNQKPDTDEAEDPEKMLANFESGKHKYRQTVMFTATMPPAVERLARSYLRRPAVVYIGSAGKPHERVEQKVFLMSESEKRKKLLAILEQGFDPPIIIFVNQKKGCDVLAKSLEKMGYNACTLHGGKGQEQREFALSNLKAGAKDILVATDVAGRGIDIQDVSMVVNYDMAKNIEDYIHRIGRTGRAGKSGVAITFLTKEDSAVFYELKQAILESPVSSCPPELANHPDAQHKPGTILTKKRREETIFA
UniProt Q9NR30: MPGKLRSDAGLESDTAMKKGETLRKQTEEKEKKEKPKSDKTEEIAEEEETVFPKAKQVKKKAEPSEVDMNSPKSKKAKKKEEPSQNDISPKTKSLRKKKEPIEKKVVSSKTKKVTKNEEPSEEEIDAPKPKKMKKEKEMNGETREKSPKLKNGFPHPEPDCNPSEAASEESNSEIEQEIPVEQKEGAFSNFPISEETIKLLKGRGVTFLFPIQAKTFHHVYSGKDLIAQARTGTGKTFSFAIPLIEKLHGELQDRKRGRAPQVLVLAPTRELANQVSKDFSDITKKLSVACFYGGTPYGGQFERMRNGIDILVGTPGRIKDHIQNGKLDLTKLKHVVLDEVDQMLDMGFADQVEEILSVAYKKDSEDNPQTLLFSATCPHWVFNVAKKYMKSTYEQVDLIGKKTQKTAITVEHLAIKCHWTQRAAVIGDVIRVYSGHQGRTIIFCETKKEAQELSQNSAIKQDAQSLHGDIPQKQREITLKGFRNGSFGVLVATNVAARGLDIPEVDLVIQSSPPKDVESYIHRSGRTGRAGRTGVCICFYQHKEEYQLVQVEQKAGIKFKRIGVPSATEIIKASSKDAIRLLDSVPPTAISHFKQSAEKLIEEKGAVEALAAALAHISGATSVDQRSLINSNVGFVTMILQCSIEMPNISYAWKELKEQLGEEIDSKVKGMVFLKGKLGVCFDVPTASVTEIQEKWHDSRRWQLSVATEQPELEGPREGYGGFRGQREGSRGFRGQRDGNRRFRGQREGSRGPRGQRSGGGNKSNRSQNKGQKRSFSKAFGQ

What was measured:
[1] = biological target: T1, HA-myc-BioID2-GID4 (human) (UniProt Q8IVV7); test: proximity labelling
T1 sequence: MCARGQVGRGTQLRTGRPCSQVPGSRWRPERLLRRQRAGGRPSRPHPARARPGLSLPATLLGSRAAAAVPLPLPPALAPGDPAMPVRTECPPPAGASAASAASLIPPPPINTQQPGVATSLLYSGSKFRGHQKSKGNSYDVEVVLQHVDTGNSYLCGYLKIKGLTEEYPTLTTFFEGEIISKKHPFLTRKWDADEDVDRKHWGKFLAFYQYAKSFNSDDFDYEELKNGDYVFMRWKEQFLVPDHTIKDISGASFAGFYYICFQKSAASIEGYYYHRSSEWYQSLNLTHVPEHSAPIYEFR

[2] = biological target: T1, HA-myc-BioID2-GID4 (human); test: proximity labelling; remark: listed apart in the source

| Molecule | binding [1] | binding [2] |
| --- | --- | --- |
| DDX17 (from UniProt Q92841 1-729) | binds | no binding (only with 10 uM PFI-7) |
| USP7 (from UniProt Q93009 1-1102) (enzyme) | binds |  |
| DICER1 (from UniProt Q9UPY3 1-1922) (enzyme) | no binding |  |
| IFI16 (from UniProt Q16666 1-785) | binds |  |
| DDX23 (from UniProt Q9BUQ8 1-820) | binds |  |
| DDX21 (from UniProt Q9NR30 1-783) | binds | no binding (only with 10 uM PFI-7) |
| KIN (protein, UniProt O60870 1-393) MGKSDFLTPKAIANRIKSKGLQKLRWYCQMCQKQCRDENGFKCHCMSESHQRQLLLASENPQQFMDYFSEEFRNDFLELLRRRFGTKRVHNNIVYNEYISHREHIHMNATQWETLTDFTKWLGREGLCKVDETPKGWYIQYIDRDPETIRRQLELEKKKKQDLDDEEKTAKFIEEQVRRGLEGKEQEVPTFTELSRENDEEKVTFNLSKGACSSSGATSSKSSTLGPSALKTIGSSASVKRKESSQSSTQSKEKKKKKSALDEIMEIEEEKKRTARTDYWLQPEIIVKIITKKLGEKYHKKKAIVKEVIDKYTAVVKMIDSGDKLKLDQTHLETVIPAPGKRILVLNGGYRGNEGTLESINEKTFSATIVIETGPLKGRRVEGIQYEDISKLA | binds | no binding (only with 10 uM PFI-7) |
| DDX50 (protein, UniProt Q9BQ39 1-737) MPGKLLWGDIMELEAPLEESESQKKERQKSDRRKSRHHYDSDEKSETRENGVTDDLDAPKAKKSKMKEKLNGDTEEGFNRLSDEFSKSHKSRRKDLPNGDIDEYEKKSKRVSSLDTSTHKSSDNKLEETLTREQKEGAFSNFPISEETIKLLKGRGVTYLFPIQVKTFGPVYEGKDLIAQARTGTGKTFSFAIPLIERLQRNQETIKKSRSPKVLVLAPTRELANQVAKDFKDITRKLSVACFYGGTSYQSQINHIRNGIDILVGTPGRIKDHLQSGRLDLSKLRHVVLDEVDQMLDLGFAEQVEDIIHESYKTDSEDNPQTLLFSATCPQWVYKVAKKYMKSRYEQVDLVGKMTQKAATTVEHLAIQCHWSQRPAVIGDVLQVYSGSEGRAIIFCETKKNVTEMAMNPHIKQNAQCLHGDIAQSQREITLKGFREGSFKVLVATNVAARGLDIPEVDLVIQSSPPQDVESYIHRSGRTGRAGRTGICICFYQPRERGQLRYVEQKAGITFKRVGVPSTMDLVKSKSMDAIRSLASVSYAAVDFFRPSAQRLIEEKGAVDALAAALAHISGASSFEPRSLITSDKGFVTMTLESLEEIQDVSCAWKELNRKLSSNAVSQITRMCLLKGNMGVCFDVPTTESERLQAEWHDSDWILSVPAKLPEIEEYYDGNTSSNSRQRSGWSSGRSGRSGRSGGRSGGRSGRQSRQGSRSGSRQDGRRRSGNRNRSRSGGHKRSFD |  | no binding (only with 10 uM PFI-7) |
| DDX24 (protein, UniProt Q9GZR7 1-859) MKLKDTKSRPKQSSCGKFQTKGIKVVGKWKEVKIDPNMFADGQMDDLVCFEELTDYQLVSPAKNPSSLFSKEAPKRKAQAVSEEEEEEEGKSSSPKKKIKLKKSKNVATEGTSTQKEFEVKDPELEAQGDDMVCDDPEAGEMTSENLVQTAPKKKKNKGKKGLEPSQSTAAKVPKKAKTWIPEVHDQKADVSAWKDLFVPRPVLRALSFLGFSAPTPIQALTLAPAIRDKLDILGAAETGSGKTLAFAIPMIHAVLQWQKRNAAPPPSNTEAPPGETRTEAGAETRSPGKAEAESDALPDDTVIESEALPSDIAAEARAKTGGTVSDQALLFGDDDAGEGPSSLIREKPVPKQNENEEENLDKEQTGNLKQELDDKSATCKAYPKRPLLGLVLTPTRELAVQVKQHIDAVARFTGIKTAILVGGMSTQKQQRMLNRRPEIVVATPGRLWELIKEKHYHLRNLRQLRCLVVDEADRMVEKGHFAELSQLLEMLNDSQYNPKRQTLVFSATLTLVHQAPARILHKKHTKKMDKTAKLDLLMQKIGMRGKPKVIDLTRNEATVETLTETKIHCETDEKDFYLYYFLMQYPGRSLVFANSISCIKRLSGLLKVLDIMPLTLHACMHQKQRLRNLEQFARLEDCVLLATDVAARGLDIPKVQHVIHYQVPRTSEIYVHRSGRTARATNEGLSLMLIGPEDVINFKKIYKTLKKDEDIPLFPVQTKYMDVVKERIRLARQIEKSEYRNFQACLHNSWIEQAAAALEIELEEDMYKGGKADQQEERRRQKQMKVLKKELRHLLSQPLFTESQKTKYPTQSGKPPLLVSAPSKSESALSCLSKQKKKKTKKPKEPQPEQPQPSTSAN | binds |  |
| DHX40 (protein, UniProt Q8IX18 1-779) MSRFPAVAGRAPRRQEEGERSRDLQEERLSAVCIADREEKGCTSQEGGTTPTFPIQKQRKKIIQAVRDNSFLIVTGNTGSGKTTQLPKYLYEAGFSQHGMIGVTQPRKVAAISVAQRVAEEMKCTLGSKVGYQVRFDDCSSKETAIKYMTDGCLLKHILGDPNLTKFSVIILDEAHERTLTTDILFGLLKKLFQEKSPNRKEHLKVVVMSATMELAKLSAFFGNCPIFDIPGRLYPVREKFCNLIGPRDRENTAYIQAIVKVTMDIHLNEMAGDILVFLTGQFEIEKSCELLFQMAESVDYDYDVQDTTLDGLLILPCYGSMTTDQQRRIFLPPPPGIRKCVISTNISATSLTIDGIRYVVDGGFVKQLNHNPRLGLDILEVVPISKSEALQRSGRAGRTSSGKCFRIYSKDFWNQCMPDHVIPEIKRTSLTSVVLTLKCLAIHDVIRFPYLDPPNERLILEALKQLYQCDAIDRSGHVTRLGLSMVEFPLPPHLTCAVIKAASLDCEDLLLPIAAMLSVENVFIRPVDPEYQKEAEQRHRELAAKAGGFNDFATLAVIFEQCKSSGAPASWCQKHWIHWRCLFSAFRVEAQLRELIRKLKQQSDFPKETFEGPKHEVLRRCLCAGYFKNVARRSVGRTFCTMDGRGSPVHIHPSSALHEQETKLEWIIFHEVLVTTKVYARIVCPIRYEWVRDLLPKLHEFNAHDLSSVARREVREDARRRWTNKENVKQLKDGISKDVLKKMQRRNDDKSISDARARFLERKQQRTQDHSDTRKETG | no binding |  |
| SCAF1 (protein, UniProt Q9H7N4 1-1312) MEEEDESRGKTEESGEDRGDGPPDRDPTLSPSAFILRAIQQAVGSSLQGDLPNDKDGSRCHGLRWRRCRSPRSEPRSQESGGTDTATVLDMATDSFLAGLVSVLDPPDTWVPSRLDLRPGESEDMLELVAEVRIGDRDPIPLPVPSLLPRLRAWRTGKTVSPQSNSSRPTCARHLTLGTGDGGPAPPPAPSSASSSPSPSPSSSSPSPPPPPPPPAPPAPPAPRFDIYDPFHPTDEAYSPPPAPEQKYDPFEPTGSNPSSSAGTPSPEEEEEEEEEEEEEEEDEEEEEGLSQSISRISETLAGIYDDNSLSQDFPGDESPRPDAQPTQPTPAPGTPPQVDSTRADGAMRRRVFVVGTEAEACREGKVSVEVVTAGGAALPPPLLPPGDSEIEEGEIVQPEEEPRLALSLFRPGGRAARPTPAASATPTAQPLPQPPAPRAPEGDDFLSLHAESDGEGALQVDLGEPAPAPPAADSRWGGLDLRRKILTQRRERYRQRSPSPAPAPAPAAAAGPPTRKKSRRERKRSGEAKEAASSSSGTQPAPPAPASPWDSKKHRSRDRKPGSHASSSARRRSRSRSRSRSTRRRSRSTDRRRGGSRRSRSREKRRRRRRSASPPPATSSSSSSRRERHRGKHRDGGGSKKKKKRSRSRGEKRSGDGSEKAPAPAPPPSGSTSCGDRDSRRRGAVPPSIQDLTDHDLFAIKRTITVGRLDKSDPRGPSPAPASSPKREVLYDSEGLSGEERGGKSSQKDRRRSGAASSSSSSREKGSRRKALDGGDRDRDRDRDRDRDRSSKKARPPKESAPSSGPPPKPPVSSGSGSSSSSSSCSSRKVKLQSKVAVLIREGVSSTTPAKDAASAGLGSIGVKFSRDRESRSPFLKPDERAPTEMAKAAPGSTKPKKTKVKAKAGAKKTKGTKGKTKPSKTRKKVRSGGGSGGSGGQVSLKKSKADSCSQAAGTKGAEETSWSGEERAAKVPSTPPPKAAPPPPALTPDSQTVDSSCKTPEVSFLPEEATEEAGVRGGAEEEEEEEEEEEEEEEEEEQQPATTTATSTAAAAPSTAPSAGSTAGDSGAEDGPASRVSQLPTLPPPMPWNLPAGVDCTTSGVLALTALLFKMEEANLASRAKAQELIQATNQILSHRKPPSSLGMTPAPVPTSLGLPPGPSSYLLPGSLPLGGCGSTPPTPTGLAATSDKREGSSSSEGRGDTDKYLKKLHTQERAVEEVKLAIKPYYQKKDITKEEYKDILRKAVHKICHSKSGEINPVKVSNLVRAYVQRYRYFRKHGRKPGDPPGPPRPPKEPGPPDKGGPGLPLPPL | binds |  |
| UBE2O (enzyme, UniProt Q9C0C9 1-1292) MADPAAPTPAAPAPAQAPAPAPEAVPAPAAAPVPAPAPASDSASGPSSDSGPEAGSQRLLFSHDLVSGRYRGSVHFGLVRLIHGEDSDSEGEEEGRGSSGCSEAGGAGHEEGRASPLRRGYVRVQWYPEGVKQHVKETKLKLEDRSVVPRDVVRHMRSTDSQCGTVIDVNIDCAVKLIGTNCIIYPVNSKDLQHIWPFMYGDYIAYDCWLGKVYDLKNQIILKLSNGARCSMNTEDGAKLYDVCPHVSDSGLFFDDSYGFYPGQVLIGPAKIFSSVQWLSGVKPVLSTKSKFRVVVEEVQVVELKVTWITKSFCPGGTDSVSPPPSVITQENLGRVKRLGCFDHAQRQLGERCLYVFPAKVEPAKIAWECPEKNCAQGEGSMAKKVKRLLKKQVVRIMSCSPDTQCSRDHSMEDPDKKGESKTKSEAESASPEETPDGSASPVEMQDEGAEEPHEAGEQLPPFLLKEGRDDRLHSAEQDADDEAADDTDDTSSVTSSASSTTSSQSGSGTSRKKSIPLSIKNLKRKHKRKKNKITRDFKPGDRVAVEVVTTMTSADVMWQDGSVECNIRSNDLFPVHHLDNNEFCPGDFVVDKRVQSCPDPAVYGVVQSGDHIGRTCMVKWFKLRPSGDDVELIGEEEDVSVYDIADHPDFRFRTTDIVIRIGNTEDGAPHKEDEPSVGQVARVDVSSKVEVVWADNSKTIILPQHLYNIESEIEESDYDSVEGSTSGASSDEWEDDSDSWETDNGLVEDEHPKIEEPPIPPLEQPVAPEDKGVVISEEAATAAVQGAVAMAAPMAGLMEKAGKDGPPKSFRELKEAIKILESLKNMTVEQLLTGSPTSPTVEPEKPTREKKFLDDIKKLQENLKKTLDNVAIVEEEKMEAVPDVERKEDKPEGQSPVKAEWPSETPVLCQQCGGKPGVTFTSAKGEVFSVLEFAPSNHSFKKIEFQPPEAKKFFSTVRKEMALLATSLPEGIMVKTFEDRMDLFSALIKGPTRTPYEDGLYLFDIQLPNIYPAVPPHFCYLSQCSGRLNPNLYDNGKVCVSLLGTWIGKGTERWTSKSSLLQVLISIQGLILVNEPYYNEAGFDSDRGLQEGYENSRCYNEMALIRVVQSMTQLVRRPPEVFEQEIRQHFSTGGWRLVNRIESWLETHALLEKAQALPNGVPKASSSPEPPAVAELSDSGQQEPEDGGPAPGEASQGSDSEGGAQGLASASRDHTDQTSETAPDASVPPSVKPKKRRKSYRSFLPEKSGYPDIGFPLFPLSKGFIKSIRGVLTQFRAALLEAGMPECTEDK | binds |  |
